Publication PMC8722053
These are yes or no findings as the source states them, for the method shown. Binding seen in cells or lysates may run through a third protein. Some results given as binding are weak or reduced against the parent protein; the word gives no strength.

The chains behind the UniProt entries cited, without tags or fusion partners.
UniProt B2RWS6: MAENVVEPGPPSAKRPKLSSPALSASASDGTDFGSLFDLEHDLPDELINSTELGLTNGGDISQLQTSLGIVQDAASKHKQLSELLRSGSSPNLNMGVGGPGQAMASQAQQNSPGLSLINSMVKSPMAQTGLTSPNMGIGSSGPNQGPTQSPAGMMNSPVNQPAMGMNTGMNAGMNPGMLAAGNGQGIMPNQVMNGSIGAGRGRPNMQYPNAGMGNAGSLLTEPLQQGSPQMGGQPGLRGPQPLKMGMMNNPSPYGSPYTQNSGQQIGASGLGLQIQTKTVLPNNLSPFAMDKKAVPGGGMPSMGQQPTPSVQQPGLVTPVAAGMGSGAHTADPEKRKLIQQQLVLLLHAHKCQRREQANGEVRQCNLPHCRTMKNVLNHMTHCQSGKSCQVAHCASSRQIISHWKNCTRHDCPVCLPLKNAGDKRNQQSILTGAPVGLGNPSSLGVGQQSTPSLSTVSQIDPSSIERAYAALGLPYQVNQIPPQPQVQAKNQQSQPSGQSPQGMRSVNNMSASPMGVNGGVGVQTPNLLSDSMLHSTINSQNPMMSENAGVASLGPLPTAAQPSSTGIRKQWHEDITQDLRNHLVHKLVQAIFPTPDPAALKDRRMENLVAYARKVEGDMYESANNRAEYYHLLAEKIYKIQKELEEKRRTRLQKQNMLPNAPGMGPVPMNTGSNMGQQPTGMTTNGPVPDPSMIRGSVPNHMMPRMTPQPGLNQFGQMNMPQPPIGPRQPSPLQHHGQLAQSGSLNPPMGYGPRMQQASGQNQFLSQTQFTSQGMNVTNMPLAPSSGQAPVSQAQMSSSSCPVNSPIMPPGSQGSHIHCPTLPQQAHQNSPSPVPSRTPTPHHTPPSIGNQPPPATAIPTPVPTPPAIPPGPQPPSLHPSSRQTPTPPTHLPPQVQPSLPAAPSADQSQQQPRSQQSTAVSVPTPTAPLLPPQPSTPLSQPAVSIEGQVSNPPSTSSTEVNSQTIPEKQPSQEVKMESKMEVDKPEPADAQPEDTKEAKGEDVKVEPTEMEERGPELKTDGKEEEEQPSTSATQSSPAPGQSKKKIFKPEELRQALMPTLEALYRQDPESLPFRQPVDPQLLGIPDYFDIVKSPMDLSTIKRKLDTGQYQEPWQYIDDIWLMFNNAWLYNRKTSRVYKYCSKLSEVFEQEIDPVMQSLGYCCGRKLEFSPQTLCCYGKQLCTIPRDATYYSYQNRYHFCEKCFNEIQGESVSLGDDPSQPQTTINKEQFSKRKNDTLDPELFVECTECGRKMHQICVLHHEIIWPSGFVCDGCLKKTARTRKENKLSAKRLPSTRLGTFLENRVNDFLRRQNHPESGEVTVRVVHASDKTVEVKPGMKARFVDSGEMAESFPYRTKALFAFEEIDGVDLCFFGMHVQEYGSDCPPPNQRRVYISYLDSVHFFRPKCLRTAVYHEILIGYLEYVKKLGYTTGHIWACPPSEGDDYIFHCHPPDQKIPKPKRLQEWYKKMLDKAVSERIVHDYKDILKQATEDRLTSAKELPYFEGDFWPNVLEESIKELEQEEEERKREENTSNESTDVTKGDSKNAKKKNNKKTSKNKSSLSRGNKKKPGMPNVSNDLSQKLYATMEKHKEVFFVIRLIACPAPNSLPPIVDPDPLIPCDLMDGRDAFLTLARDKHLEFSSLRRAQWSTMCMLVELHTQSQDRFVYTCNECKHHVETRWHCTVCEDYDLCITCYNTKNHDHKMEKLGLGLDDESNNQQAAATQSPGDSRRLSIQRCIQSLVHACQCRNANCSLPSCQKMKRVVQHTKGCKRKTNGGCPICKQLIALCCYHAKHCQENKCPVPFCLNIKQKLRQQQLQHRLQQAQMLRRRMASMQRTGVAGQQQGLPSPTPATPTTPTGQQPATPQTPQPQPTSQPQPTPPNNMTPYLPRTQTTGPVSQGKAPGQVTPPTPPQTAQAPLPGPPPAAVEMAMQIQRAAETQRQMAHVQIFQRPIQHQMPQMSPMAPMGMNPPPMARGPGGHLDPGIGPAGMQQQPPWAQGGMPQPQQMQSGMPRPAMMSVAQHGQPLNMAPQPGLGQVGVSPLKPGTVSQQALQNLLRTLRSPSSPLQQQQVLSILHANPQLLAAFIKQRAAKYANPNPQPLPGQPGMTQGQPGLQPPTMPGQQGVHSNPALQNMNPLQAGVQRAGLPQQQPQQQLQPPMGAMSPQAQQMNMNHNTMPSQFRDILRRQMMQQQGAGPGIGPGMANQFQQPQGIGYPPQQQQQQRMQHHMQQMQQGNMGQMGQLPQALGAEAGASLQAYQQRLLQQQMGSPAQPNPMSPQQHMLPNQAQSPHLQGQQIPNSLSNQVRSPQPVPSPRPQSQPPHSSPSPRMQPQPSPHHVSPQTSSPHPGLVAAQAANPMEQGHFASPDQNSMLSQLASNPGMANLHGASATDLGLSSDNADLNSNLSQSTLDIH

Biological target: p300 (mouse (endogenous in liver)) (UniProt B2RWS6)
Assay: co-IP; mouse liver tissue extract, pre-cleared with protein A/G-agarose; p300 antibody or nonimmune IgG (2 ug) overnight at 4 C; six washes with cold lysis buffer; immunoblot; wild-type littermates and liver-specific Pes1 knockout mice

binding: binds
B1: Sterol regulatory element binding protein 1c (protein, UniProt Q9WTN3-3 1-1110)
chain: MDCTFEDMLQLINNQDSDFPGLFDAPYAGGETGDTGPSSPGANSPESFSSASLASSLEAFLGGPKVTPAPLSPPPSAPAALKMYPSVSPFSPGPGIKEEPVPLTILQPAAPQPSPGTLLPPSFPAPPVQLSPAPVLGYSSLPSGFSGTLPGNTQQPPSSLPLAPAPGVLPTPALHTQVQSLASQQPLPASAAPRTNTVTSQVQQVPVVLQPHFIKADSLLLTAVKTDAGATVKTAGISTLAPGTAVQAGPLQTLVSGGTILATVPLVVDTDKLPIHRLAAGSKALGSAQSRGEKRTAHNAIEKRYRSSINDKIVELKDLVVGTEAKLNKSAVLRKAIDYIRFLQHSNQKLKQENLTLRSAHKSKSLKDLVSACGSGGGTDVSMEGMKPEVVETLTPPPSDAGSPSQSSPLSFGSRASSSGGSDSEPDSPAFEDSQVKAQRLPSHSRGMLDRSRLALCVLAFLCLTCNPLASLFGWGILTPSDATGTHRSSGRSMLEAESRDGSNWTQWLLPPLVWLANGLLVLACLALLFVYGEPVTRPHSGPAVHFWRHRKQADLDLARGDFPQAAQQLWLALQALGRPLPTSNLDLACSLLWNLIRHLLQRLWVGRWLAGQAGGLLRDRGLRKDARASARDAAVVYHKLHQLHAMGKYTGGHLAASNLALSALNLAECAGDAISMATLAEIYVAAALRVKTSLPRALHFLTRFFLSSARQACLAQSGSVPLAMQWLCHPVGHRFFVDGDWAVHGAPPESLYSVAGNPVDPLAQVTRLFREHLLERALNCIAQPSPGAADGDREFSDALGYLQLLNSCSDAAGAPACSFSVSSSMAATTGPDPVAKWWASLTAVVIHWLRRDEEAAERLYPLVEHIPQVLQDTERPLPRAALYSFKAARALLDHRKVESSPASLAICEKASGYLRDSLASTPTGSSIDKAMQLLLCDLLLVARTSLWQRQQSPASVQVAHGTSNGPQASALELRGFQHDLSSLRRLAQSFRPAMRRVFLHEATARLMAGASPARTHQLLDRSLRRRAGSSGKGGTTAELEPRPTWREHTEALLLASCYLPPAFLSAPGQRMSMLAEAARTVEKLGDHRLLLDCQQMLLRLGGGTTVTSS
